# Measurements published in the supplement of paper PMC12067093, “Discovery and optimisation of a covalent ligand for TRIM25 and its application to targeted protein ubiquitination” (Chemical Science, 2025).
# Chains of the proteins cited; added tags and fusions are not shown. Lines headed by an entry give the natural chain unless they say otherwise; changes in a name come on top.
# UniProt Q9BYW2: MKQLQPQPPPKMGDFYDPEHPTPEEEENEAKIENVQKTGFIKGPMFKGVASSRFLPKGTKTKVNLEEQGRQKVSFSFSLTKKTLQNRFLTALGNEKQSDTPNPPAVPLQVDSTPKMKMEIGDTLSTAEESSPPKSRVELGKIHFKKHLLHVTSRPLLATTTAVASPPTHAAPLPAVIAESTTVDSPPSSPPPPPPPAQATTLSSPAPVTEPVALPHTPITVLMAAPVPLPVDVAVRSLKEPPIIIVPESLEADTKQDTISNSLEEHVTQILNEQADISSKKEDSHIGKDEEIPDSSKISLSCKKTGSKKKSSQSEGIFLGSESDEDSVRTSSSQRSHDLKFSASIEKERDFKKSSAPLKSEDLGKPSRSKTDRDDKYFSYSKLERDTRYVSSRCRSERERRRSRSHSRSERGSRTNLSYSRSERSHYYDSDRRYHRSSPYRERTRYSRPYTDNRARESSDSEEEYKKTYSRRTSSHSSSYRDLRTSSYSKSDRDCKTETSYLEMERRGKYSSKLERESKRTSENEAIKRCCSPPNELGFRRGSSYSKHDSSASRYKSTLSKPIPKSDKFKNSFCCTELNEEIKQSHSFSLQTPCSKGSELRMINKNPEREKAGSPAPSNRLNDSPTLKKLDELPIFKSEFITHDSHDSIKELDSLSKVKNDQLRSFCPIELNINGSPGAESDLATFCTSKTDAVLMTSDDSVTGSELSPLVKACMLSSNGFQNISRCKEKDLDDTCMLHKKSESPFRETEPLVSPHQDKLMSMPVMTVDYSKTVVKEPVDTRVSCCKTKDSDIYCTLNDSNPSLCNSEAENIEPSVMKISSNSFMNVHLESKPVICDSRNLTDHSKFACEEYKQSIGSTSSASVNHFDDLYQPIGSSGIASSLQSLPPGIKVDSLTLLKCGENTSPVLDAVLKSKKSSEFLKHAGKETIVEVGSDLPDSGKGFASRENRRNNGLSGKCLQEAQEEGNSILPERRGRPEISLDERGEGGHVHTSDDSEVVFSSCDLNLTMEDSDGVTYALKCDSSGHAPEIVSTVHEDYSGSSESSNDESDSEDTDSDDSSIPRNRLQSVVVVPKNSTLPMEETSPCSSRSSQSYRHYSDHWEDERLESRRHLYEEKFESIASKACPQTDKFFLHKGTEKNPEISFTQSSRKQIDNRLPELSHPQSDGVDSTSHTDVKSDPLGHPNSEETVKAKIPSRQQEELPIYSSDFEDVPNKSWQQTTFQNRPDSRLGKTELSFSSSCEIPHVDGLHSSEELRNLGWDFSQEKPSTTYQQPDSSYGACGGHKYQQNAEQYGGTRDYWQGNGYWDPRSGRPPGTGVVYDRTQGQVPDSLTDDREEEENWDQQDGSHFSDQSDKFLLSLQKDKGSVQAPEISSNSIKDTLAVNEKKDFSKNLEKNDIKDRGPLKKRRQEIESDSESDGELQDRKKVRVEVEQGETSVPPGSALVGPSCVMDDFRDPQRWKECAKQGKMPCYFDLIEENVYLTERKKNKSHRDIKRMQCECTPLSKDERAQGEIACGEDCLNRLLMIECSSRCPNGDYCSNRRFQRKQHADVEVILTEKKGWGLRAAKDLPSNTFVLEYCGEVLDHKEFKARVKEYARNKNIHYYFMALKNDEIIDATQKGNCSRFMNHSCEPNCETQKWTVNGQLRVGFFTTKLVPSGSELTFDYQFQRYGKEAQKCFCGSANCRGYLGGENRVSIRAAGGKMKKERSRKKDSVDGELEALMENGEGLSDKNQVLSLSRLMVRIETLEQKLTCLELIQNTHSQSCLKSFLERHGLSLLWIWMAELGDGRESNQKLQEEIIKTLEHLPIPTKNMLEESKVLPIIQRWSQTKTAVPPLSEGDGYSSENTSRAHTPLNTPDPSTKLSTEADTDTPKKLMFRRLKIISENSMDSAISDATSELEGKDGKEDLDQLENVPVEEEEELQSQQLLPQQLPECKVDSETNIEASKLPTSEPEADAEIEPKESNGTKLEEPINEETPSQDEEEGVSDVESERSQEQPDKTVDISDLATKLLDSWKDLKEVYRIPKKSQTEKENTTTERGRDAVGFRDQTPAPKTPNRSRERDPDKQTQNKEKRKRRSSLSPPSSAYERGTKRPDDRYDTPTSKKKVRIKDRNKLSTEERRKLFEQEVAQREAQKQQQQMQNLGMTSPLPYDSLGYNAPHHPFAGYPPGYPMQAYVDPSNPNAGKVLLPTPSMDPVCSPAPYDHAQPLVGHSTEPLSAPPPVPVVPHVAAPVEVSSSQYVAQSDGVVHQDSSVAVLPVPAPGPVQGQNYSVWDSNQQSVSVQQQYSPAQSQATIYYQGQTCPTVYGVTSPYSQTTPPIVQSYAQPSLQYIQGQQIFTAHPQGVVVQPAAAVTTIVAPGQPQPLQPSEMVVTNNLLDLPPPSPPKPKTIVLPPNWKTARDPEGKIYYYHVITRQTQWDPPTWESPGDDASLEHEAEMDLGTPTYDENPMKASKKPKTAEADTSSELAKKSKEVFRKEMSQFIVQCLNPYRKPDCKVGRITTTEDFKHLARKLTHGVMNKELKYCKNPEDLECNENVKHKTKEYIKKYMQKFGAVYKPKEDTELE
# UniProt P53007, whole entry, looked up: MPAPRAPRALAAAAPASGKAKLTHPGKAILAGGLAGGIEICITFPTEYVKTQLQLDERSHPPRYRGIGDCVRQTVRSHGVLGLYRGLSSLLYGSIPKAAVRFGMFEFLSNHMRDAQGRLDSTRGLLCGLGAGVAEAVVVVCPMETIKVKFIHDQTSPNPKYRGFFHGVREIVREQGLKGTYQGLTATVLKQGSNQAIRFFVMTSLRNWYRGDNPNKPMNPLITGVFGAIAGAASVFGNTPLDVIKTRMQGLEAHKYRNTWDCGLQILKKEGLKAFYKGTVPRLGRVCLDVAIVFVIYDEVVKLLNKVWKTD
# UniProt Q15459: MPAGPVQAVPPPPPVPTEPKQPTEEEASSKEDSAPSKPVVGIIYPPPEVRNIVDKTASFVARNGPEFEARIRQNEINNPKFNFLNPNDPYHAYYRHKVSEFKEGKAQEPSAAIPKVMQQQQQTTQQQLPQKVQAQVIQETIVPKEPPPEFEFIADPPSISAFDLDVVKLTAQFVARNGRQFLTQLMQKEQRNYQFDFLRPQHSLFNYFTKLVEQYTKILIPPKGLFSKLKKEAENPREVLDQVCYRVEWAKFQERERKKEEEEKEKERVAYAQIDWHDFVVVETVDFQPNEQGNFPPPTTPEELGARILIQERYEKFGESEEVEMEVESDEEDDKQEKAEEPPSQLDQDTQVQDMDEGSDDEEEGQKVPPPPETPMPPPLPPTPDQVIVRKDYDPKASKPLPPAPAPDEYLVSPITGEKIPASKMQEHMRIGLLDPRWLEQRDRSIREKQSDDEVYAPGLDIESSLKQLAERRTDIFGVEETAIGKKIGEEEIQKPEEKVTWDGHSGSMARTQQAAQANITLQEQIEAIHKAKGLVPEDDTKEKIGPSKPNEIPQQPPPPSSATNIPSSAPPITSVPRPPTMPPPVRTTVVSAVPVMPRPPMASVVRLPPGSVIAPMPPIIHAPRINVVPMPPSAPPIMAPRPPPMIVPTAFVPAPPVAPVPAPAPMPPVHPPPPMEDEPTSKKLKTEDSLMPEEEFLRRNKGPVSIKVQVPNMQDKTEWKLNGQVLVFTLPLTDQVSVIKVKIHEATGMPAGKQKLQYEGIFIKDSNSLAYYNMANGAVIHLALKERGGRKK
# UniProt Q9UBX3: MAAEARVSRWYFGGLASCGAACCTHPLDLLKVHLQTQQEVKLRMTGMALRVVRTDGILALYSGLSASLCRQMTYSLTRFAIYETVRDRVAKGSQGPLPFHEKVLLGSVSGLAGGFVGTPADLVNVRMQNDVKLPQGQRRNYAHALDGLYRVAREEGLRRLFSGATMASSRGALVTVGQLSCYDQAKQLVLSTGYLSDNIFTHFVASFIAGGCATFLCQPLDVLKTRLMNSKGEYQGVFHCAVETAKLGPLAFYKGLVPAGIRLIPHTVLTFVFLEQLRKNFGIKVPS
# UniProt Q00325: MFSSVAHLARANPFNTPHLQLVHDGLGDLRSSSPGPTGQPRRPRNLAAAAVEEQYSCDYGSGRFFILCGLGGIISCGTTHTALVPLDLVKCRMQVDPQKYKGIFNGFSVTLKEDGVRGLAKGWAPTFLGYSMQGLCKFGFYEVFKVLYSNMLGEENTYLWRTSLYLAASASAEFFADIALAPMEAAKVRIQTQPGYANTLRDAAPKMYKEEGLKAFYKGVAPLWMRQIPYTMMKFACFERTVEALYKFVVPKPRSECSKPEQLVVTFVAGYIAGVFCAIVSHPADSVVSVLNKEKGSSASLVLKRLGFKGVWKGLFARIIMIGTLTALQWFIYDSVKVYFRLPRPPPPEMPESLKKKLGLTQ
# UniProt O43772: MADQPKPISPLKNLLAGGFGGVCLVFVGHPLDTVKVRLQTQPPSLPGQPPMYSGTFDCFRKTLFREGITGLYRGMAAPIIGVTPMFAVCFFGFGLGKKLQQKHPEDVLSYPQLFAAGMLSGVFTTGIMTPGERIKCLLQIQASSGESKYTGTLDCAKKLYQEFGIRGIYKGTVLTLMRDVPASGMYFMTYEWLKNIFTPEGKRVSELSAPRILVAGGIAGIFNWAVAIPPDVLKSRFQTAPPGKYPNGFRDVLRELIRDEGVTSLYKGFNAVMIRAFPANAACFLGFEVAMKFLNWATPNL
# UniProt Q9UPS6, whole entry, looked up: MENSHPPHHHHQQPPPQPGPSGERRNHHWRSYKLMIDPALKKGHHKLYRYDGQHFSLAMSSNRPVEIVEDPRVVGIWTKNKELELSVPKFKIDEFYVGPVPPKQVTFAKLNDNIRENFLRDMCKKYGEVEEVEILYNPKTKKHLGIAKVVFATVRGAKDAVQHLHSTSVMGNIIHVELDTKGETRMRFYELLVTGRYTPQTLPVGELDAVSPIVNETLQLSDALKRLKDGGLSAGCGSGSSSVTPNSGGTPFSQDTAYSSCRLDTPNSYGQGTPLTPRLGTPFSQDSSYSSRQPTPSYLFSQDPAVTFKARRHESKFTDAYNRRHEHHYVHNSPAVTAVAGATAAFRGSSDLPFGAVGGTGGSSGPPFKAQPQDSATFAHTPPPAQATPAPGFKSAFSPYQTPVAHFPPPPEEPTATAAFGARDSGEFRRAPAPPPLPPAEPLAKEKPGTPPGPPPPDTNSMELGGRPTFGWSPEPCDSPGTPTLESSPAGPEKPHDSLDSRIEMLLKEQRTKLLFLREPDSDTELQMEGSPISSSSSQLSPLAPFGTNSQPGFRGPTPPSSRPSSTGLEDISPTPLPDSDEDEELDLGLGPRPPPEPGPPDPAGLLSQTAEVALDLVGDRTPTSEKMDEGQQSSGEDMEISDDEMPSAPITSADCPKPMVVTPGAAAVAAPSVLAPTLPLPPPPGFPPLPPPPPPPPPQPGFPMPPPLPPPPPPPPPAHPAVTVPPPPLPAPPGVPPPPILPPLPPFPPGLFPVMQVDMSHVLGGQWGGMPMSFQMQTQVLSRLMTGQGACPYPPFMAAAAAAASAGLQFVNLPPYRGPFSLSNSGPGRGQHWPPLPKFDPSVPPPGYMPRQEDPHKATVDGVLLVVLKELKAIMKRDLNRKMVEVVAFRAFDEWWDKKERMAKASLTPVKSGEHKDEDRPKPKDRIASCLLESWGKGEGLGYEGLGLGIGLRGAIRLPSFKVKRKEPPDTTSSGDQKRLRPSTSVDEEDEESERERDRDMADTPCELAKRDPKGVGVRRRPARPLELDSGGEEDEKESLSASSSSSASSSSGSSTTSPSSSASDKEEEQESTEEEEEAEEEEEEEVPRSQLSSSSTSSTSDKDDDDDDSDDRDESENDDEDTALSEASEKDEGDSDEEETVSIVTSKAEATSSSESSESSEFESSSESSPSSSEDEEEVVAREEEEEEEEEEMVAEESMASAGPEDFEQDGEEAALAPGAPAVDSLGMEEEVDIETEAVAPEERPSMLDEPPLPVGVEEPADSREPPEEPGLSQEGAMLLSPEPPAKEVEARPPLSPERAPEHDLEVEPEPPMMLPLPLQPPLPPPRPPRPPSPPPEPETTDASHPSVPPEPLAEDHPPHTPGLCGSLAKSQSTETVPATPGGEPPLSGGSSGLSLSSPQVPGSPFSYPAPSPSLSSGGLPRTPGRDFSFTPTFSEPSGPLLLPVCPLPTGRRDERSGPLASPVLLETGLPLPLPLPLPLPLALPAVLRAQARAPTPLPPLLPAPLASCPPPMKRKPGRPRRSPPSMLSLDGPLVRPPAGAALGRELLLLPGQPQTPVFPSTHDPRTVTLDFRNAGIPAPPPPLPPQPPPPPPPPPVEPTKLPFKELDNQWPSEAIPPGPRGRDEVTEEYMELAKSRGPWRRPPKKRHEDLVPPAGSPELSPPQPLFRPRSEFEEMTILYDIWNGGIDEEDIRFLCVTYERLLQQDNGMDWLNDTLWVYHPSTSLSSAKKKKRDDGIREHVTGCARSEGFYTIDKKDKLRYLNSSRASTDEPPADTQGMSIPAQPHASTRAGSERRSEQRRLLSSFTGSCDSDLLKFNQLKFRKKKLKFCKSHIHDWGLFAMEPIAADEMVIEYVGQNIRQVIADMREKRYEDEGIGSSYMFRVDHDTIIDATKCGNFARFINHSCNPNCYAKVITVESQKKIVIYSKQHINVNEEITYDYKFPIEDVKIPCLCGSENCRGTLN
# This is one part of the list.
# Compound: CC1Cc2ccccc2N1C(=O)C1CCCN(C1)C(=O)CCl (mixture of isomers) [TRIM25 ligand 11 (diastereomer mixture)]
# Assay: probe-labelled cysteine peptide fold change vs DMSO (competition) (log2 fold change); higher = less target engagement (more negative = stronger competition)
# Details: THP-1, incubation time: 4 h
# 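Also: competitive chemoproteomic profiling in live THP-1 cells with an iodoacetamide desthiobiotin (IA-DTB) probe, comparing probe-labelled peptide intensities in compound-treated cells against DMSO-treated controls.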
Target,probe-labelled cysteine peptide fold change (10 µM),probe-labelled cysteine peptide fold change (50 µM)
SETD2_Q9BYW2_900_CGENTSPVLDAVLK (UniProt Q9BYW2),-0.000181,0.0428
SIAE_Q9HAT2_367_MPNTFMAVAMDLCDRDSPFGSIHPR (UniProt Q9HAT2),-0.176,-0.565
SLC25A1_P53007_70_GIGDCVR (UniProt P53007),0.0162,0.108
SLC25A4_P12235_160_EFHGLGDCIIK (UniProt P12235),-0.0707,0.0121
SKA3_Q8IX90_20_SLASTLDCETAR (UniProt Q8IX90),0.223,0.0824
SEPT6_Q14141_301_CKLEEMGFK (UniProt Q14141),-0.133,-0.178
SF3A1_Q15459_244_EAENPREVLDQVCYR (UniProt Q15459),-0.127,-0.15
SFMBT2_Q5VUG0_796_CPPTKPEGTEDTKQEEEERLVLESNPLEWTVTDVVR (UniProt Q5VUG0),-0.043,-0.0391
SFPQ_P23246_431_CSEGVFLLTTTPRPVIVEPLEQLDDEDGLPEK (UniProt P23246),0.153,0.0356
SIRPA_P78324_228_EDVHSQVICEVAHVTLQGDPLR (UniProt P78324),-0.244,0.114
SH2D4A_Q9H788_94_EVWVWVMGEHHLDKPYDVLCNEIIAER (UniProt Q9H788),-0.179,-0.0992
SF3B3_Q15393_547_CAVNQR (UniProt Q15393),-0.0751,0.161
SH3GL1_Q99961_277_PREPFDLGEPEQSNGGFPCTTAPK (UniProt Q99961),0.0428,-0.334
SEPT2_Q15019_148+149_VHCCFYFISPFGHGLKPLDVAFMK (UniProt Q15019),-0.0977,-0.066
SEPT3_Q9UH03_295_KTPWGIIEVENLNHCEFALLR (UniProt Q9UH03),-0.0858,-0.28
SLC25A10_Q9UBX3_240_GEYQGVFHCAVETAK (UniProt Q9UBX3),0.0427,0.11
SIL1_Q9H173_379_QVHLLPGLWEQGWCEITAHLLALPEHDAR (UniProt Q9H173),0.0151,0.218
SF3B3_Q15393_289_GMIFVCSATHK (UniProt Q15393),0.255,0.0632
SEPT6_Q14141_42_SVSQGFCFNILCVGETGLGK (UniProt Q14141),0.182,0.17
SH3GL1_Q99961_277_EPFDLGEPEQSNGGFPCTTAPK (UniProt Q99961),0.0065,-0.144
SHOC2_Q9UQ13_260_EIGNCTQITNLDLQHNELLDLPDTIGNLSSLSR (UniProt Q9UQ13),-0.206,0.0115

Target,probe-labelled cysteine peptide fold change (10 µM),probe-labelled cysteine peptide fold change (50 µM)
SETD2_Q9BYW2_1241_TELSFSSSCEIPHVDGLHSSEELR (UniProt Q9BYW2),0.0856,-0.416
SIVA1_O15304_62_LLFLGAQAYLDHVWDEGCAVVHLPESPKPGPTGAPR (UniProt O15304),0.107,0.179
SHTN1_A0MZ66_550_KLEGCTSSK (UniProt A0MZ66),-0.0607,-0.213
SKA3_Q8IX90_147_TDVKDDLSDPPVASSCISEK (UniProt Q8IX90),-0.288,-0.238
SLC25A3_Q00325-2_67+75_YYALCGFGGVLSCGLTHTAVVPLDLVK (UniProt Q00325),-0.011,0.117
SH3PXD2B_A1X283_115_ALIQLPPYISQCDEVLQFFETRPEDLNPPKEEHIGK (UniProt A1X283),-0.32,-0.311
SIKE1_Q9BRV8_146_ICEMGEVMR (UniProt Q9BRV8),-0.00677,-0.0739
SLC25A22_Q9H936_116_EMLAGCGAGTCQVIVTTPMEMLK (UniProt Q9H936),0.181,0.173
SLC19A1_P41440_220_CETSASELER (UniProt P41440),0.0189,-0.108
SETD7_Q8WTS6_303_ANHSFTPNCIYDMFVHPR (UniProt Q8WTS6),0.0776,0.0787
SLC25A36_Q96CQ1_67_VVSPGPLHCLK (UniProt Q96CQ1),0.114,0.127
SIL1_Q9H173_408_VLQTLGVLLTTCR (UniProt Q9H173),0.0793,0.848
SFMBT1_Q9UHJ3_659_IGRPPGGHSNLACALK (UniProt Q9UHJ3),-0.102,-0.0794
SLC25A3_Q00325_136_GWAPTFLGYSMQGLCK (UniProt Q00325),-0.0136,0.22
SEPT8_Q92599_49_SVTQGFSFNILCVGETGIGK (UniProt Q92599),0.0502,0.117
SLC25A20_O43772_136_CLLQIQASSGESK (UniProt O43772),-0.0132,0.0621
SETD2_Q9BYW2_836_ISSNSFMNVHLESKPVICDSR (UniProt Q9BYW2),-0.0203,-0.186
SF3B3_Q15393_340_YFDTVPVAAAMCVLK (UniProt Q15393),-0.126,-0.183
SIRT3_Q9NTG7_256+259_LVEAHGTFASATCTVCQRPFPGEDIR (UniProt Q9NTG7),-0.2,-0.279
SERINC3_Q13530_72_KIPGFCEGGFK (UniProt Q13530),-0.0152,-0.0723
SLC25A20_O43772_23_NLLAGGFGGVCLVFVGHPLDTVK (UniProt O43772),-0.00829,-0.057

Target,probe-labelled cysteine peptide fold change (10 µM),probe-labelled cysteine peptide fold change (50 µM)
SETD2_Q9BYW2_2532_NPEDLECNENVK (UniProt Q9BYW2),0.0467,0.419
SIN3A_Q96ST3_1063_AEQLMSDENCFK (UniProt Q96ST3),0.212,0.199
SHMT1_P34896_68_AVLEALGSCLNNK (UniProt P34896),0.00575,-0.024
SGK3_Q96BR1_13_ESCPSVSIPSSDEHR (UniProt Q96BR1),-0.131,-0.191
SF3B2_Q13435_661_IPGLNSPIPESCSFGYHAGGWGKPPVDETGK (UniProt Q13435),0.209,-0.0619
SETD1B_Q9UPS6_1448_DFSFTPTFSEPSGPLLLPVCPLPTGR (UniProt Q9UPS6),-0.127,-0.387
SKA3_Q8IX90_126_NSVHEQEAINSDPELSNCENFQK (UniProt Q8IX90),0.211,0.0728
SF3A1_Q15459_244_EVLDQVCYR (UniProt Q15459),-0.0708,-0.0869
SERBP1_Q8NC51_11_PGHLQEGFGCVVTNR (UniProt Q8NC51),0.103,-0.191
SF3A2_Q15428_59_LCLTLHNNEGSYLAHTQGK (UniProt Q15428),0.00986,0.0211
SHMT2_P34897_241_MREVCDEVK (UniProt P34897),-0.134,-0.048
SHPRH_Q149N8_1229_NVIESATVCHLRPAR (UniProt Q149N8),0.0468,0.000376
SHMT2_P34897_241_EVCDEVK (UniProt P34897),0.0438,0.123
SLC25A1_P53007_262_NTWDCGLQILK (UniProt P53007),-0.0206,0.157
SETD1B_Q9UPS6_1746_EHVTGCAR (UniProt Q9UPS6),-0.0539,-0.0287
SKA1_Q96BD8_29_NCGQEPTLK (UniProt Q96BD8),-0.0792,0.0171
SERPINB9_P50453_259_LTAWTKPDCMK (UniProt P50453),0.00664,0.00481
SIRT5_Q9NXA8_293+303_FHFQGPCGTTLPEALACHENETVS (UniProt Q9NXA8),0.203,-0.0498
SH3GLB1_Q9Y371_304_ECSGSR (UniProt Q9Y371),-0.137,0.575
SKIV2L_Q15477_50_AVELGCTGHWELLNLPGAPESSLPHGLPPCAPDLQQEAEQLFLSSPAWLPLHGVEHSAR (UniProt Q15477),0.361,0.374
SLC25A1_P53007_141_GLLCGLGAGVAEAVVVVCPMETIK (UniProt P53007),0.0385,0.0556

Target,probe-labelled cysteine peptide fold change (10 µM),probe-labelled cysteine peptide fold change (50 µM)
SF1_Q15637_282_CGGAGHIASDCK (UniProt Q15637),-0.0834,0.023
SEPT7_Q16181_204_ADTLTPEECQQFK (UniProt Q16181),-0.00984,0.0459
SIRT1_Q96EB6_398_CPADEPLAIMKPEIVFFGENLPEQFHR (UniProt Q96EB6),-0.0824,-0.129
SETDB1_Q15047_819_CLDDIAK (UniProt Q15047),-0.0088,0.117
SHCBP1_Q8NEM2_500+510_GAGIEIYPGSQCTLSDNGIHHCK (UniProt Q8NEM2),0.135,0.0189
SETDB1_Q15047_731_GVFINTGPEFLVGCDCK (UniProt Q15047),0.0321,-0.0124
SIPA1_Q96FS4_307_LLEHVAPQLSPSCLR (UniProt Q96FS4),0.0452,-0.356
SIMC1_Q8NDZ2_603_QHLQQSIANMVLSCDK (UniProt Q8NDZ2),-0.00847,-0.0408
SLC25A5_P05141_257_GTDIMYTGTLDCWRK (UniProt P05141),-0.138,-0.241
SHMT2_P34897_80_GLELIASENFCSR (UniProt P34897),0.148,0.179
SF3A3_Q12874_145_YLDLHDCYLK (UniProt Q12874),0.0138,0.0212
SLC25A10_Q9UBX3_22+23_WYFGGLASCGAACCTHPLDLLK (UniProt Q9UBX3),0.136,0.171
SIRPA_P78324_331_LTCQVEHDGQPAVSK (UniProt P78324),-0.0264,0.0686
SF3A3_Q12874_411_LHGLNINYNCEICGNYTYR (UniProt Q12874),0.189,0.382
SLC15A4_Q8N697_269_ILTYSCCSQK (UniProt Q8N697),-0.00859,-0.114
SGO1_Q5FBB7_44_SFIAAPCQIITNTSTLLK (UniProt Q5FBB7),0.065,-0.237
SLC12A9_Q9BXP2_911_DLGPTLLVHGVTPVTCTDL (UniProt Q9BXP2),-0.0974,-0.294
SF3B6_Q9Y3B4_74_NACDHLSGFNVCNR (UniProt Q9Y3B4),0.0202,-0.0488
